Laboratory results: PubChem BioAssay AID2517 (National Center for Advancing Translational Sciences (NCATS), 2010)
Among all 350,000 compounds or so, about 1,200 (0.34%) were called active. The shares of active, inactive and inconclusive entries below differ from those in the screen. Calls follow the shape of the dose curve; as a rule, active = well fitted inhibition curve with a large enough effect; inconclusive = small, poorly fitted or top-dose-only effect; inactive = no such curve, though single readings can be large or run the other way. A potency beside an inconclusive call is a rough fit, not a confirmed value.
Also: nearly all actives have a fitted effect of over 55% in size.
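For activity change, negative = inhibition in this document: plate controls were vehicle for no effect and reference inhibitor for full effect.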
Potency is read from the fitted curve at half-maximal effect.

Chains of the proteins cited; added tags and fusions are not shown.
UniProt P27695, whole entry, looked up: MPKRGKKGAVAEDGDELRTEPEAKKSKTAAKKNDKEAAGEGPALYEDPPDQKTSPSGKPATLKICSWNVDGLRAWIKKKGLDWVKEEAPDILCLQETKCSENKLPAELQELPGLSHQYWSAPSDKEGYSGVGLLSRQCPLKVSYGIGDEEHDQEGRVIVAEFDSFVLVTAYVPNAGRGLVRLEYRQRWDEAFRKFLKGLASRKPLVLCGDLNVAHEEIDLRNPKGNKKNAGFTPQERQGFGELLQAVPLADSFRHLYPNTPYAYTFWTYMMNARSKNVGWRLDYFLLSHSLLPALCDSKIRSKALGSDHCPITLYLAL

These compounds were tested against DNA repair nuclease/redox regulator APEX1 (Homo sapiens) (UniProt P27695) (assay: qHTS Assay for Inhibitors of the Human Apurinic/apyrimidinic Endonuclease 1 (APE1)). Conditions: recombinant APE1, TAMRA/BHQ-2 abasic DNA cleavage fluorescence; activity change, negative = inhibition: at 65.8 µM (top of the series).
Procedure, shortened: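 Compound pre-exposure to 0.75 nM APE1, 15 min at ambient temperature. Reaction initiated with 50 nM TAMRA/BHQ-2 THF substrate, read immediately in kinetic mode, 525 nm excitation, 598 nm emission.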
With `COC(CC(=O)NNC(=S)Nc1ccccc1)OC` the Potency was inconclusive: 31.6 µM [inhibitor, single point]. With `COc1cc(/C=N/NC(=O)c2cc(C34CC5CC(CC(C5)C3)C4)[nH]n2)ccc1O` the Potency was inconclusive: 2 µM [inhibitor, full curve, poor fit]. In the case of `O=C(NNC(=O)c1cc2ccccc2o1)c1ccc(Cl)cc1`, the Potency is reported as inconclusive: 25.1 µM [inhibitor, single point]. `COc1ccc(NC(=O)C2CC(=O)N(CCc3ccc(Cl)cc3)C2)cc1` (centres undefined) was tested, and the Potency was “inactive”. With `O=C(CSc1nncs1)NC(=O)NCc1ccco1` the Potency was inconclusive: 17.8 µM [inhibitor, partial curve, poor fit]. In the case of `O=Cc1ccccc1-c1cn(CCCOCc2ccccc2)nn1`, the Potency is reported as “inactive”. `CCN(CC)c1ccc(/C=N/NC(=S)NCc2ccccc2)cc1` was tested, and the Potency was “inactive”. For `COC(=O)c1[nH]c(C)c(/C(O)=C2\C(=O)C(=O)N(CCN(C)C)C2c2ccc(OC)cc2)c1C` (centres undefined), the Potency was inconclusive: 0.0032 µM [inhibitor, full curve, poor fit]. `CN(C)c1ncc2nc(-c3ccccc3)c(=O)n(Cc3ccc(F)cc3)c2n1` was tested, and the Potency was “inactive”. For `CNC(=S)NC1CC2CCC(C1)N2Cc1ccccc1` (centres undefined), the Potency was “inactive”. In the case of `COC(=O)C1=C(C)N(Cc2ccccc2)[C@]23O[C@](C(=O)OC)(C(=O)N2C1c1ccccc1)C(C(=O)OC)=C3C(=O)OC` (some centres undefined), the Potency is reported as inconclusive: 3.98 µM [inhibitor, single point]. `Cc1cc(Cl)c(OCCOCCN2CCCC(C)C2)c(Br)c1` (centres undefined) was tested, and the Potency was “inactive”. For `FC(F)(F)c1nc(=S)c2ccccc2[nH]1`, the Potency was “inactive”. With `O=C(CN1C(=O)CC(c2ccco2)Sc2ccccc21)NC1CCCCC1` (centres undefined) the Potency was inconclusive: 44.7 µM [inhibitor, single point]. In the case of `O=C(O)/C=C/C(=O)N1Cc2cc3ccccc3nc2C1`, the Potency is reported as “inactive”. With `CCOC(=O)c1cn(CC)c2cc(N3CCOCC3)c(F)cc2c1=O` the Potency was inconclusive: 39.8 µM [inhibitor, single point]. For `CCOc1cc(/C=N/N=C2/NC(=O)C(CC(=O)O)S2)ccc1OCc1ccc(Cl)cc1Cl` (centres undefined), the Potency was inconclusive: 31.6 µM [inhibitor, single point]. `CC1CCN(c2nncc3ccccc23)CC1` was tested, and the Potency was inconclusive: 0.0794 µM [inhibitor, full curve, poor fit]. `O=C1OCCN1C(=O)[C@H]1[C@H](c2ccc(F)cc2)C(c2ccc(F)cc2)=NN1c1ccc(Br)cc1` was tested, and the Potency was inconclusive: 3.98 µM [inhibitor, single point]. With `CC(=O)Oc1ccc2c(c1OC(C)=O)OCC1(O)Cc3c(cc(OC(C)=O)c(OC(C)=O)c3OC(C)=O)C21` (centres undefined) the Potency was inconclusive: 2.82 µM [inhibitor, partial curve]. With `Clc1ccccc1CSC1=NCCCN1` the Potency was inconclusive: 3.16 µM [inhibitor, single point]. For `O=C(O)c1ccc(N/N=C/C=C/c2ccc([N+](=O)[O-])o2)cc1`, the Potency was active: 10.6 µM. `COC(=O)[C@@]1(Cc2ccc(OC)cc2)[C@H]2c3cc(C(=O)N(C)C)n(C[C@H](O)CO)c3C[C@H]2CN1C(=O)c1ccccc1` was tested, and the Potency was inconclusive: 3.98 µM [inhibitor, single point]. `CCc1c(C)sc2nc3c(C(=O)N4CCOCC4)cc(C(=O)c4ccccc4O)cn3c(=O)c12` was tested, and the Potency was inconclusive: 31.6 µM [inhibitor, single point]. With `CSc1ncccc1C(=O)OCC(=O)NC1CCS(=O)(=O)C1` (centres undefined) the Potency was “inactive”. For `N#Cc1c(SCC(=O)N2CCCCC2)nsc1SCC(=O)N1CCCCC1`, the Potency was “inactive”. With `CCOC(=O)c1c(C)[nH]c(N=Nc2cc(C(=O)O)cc(C(=O)O)c2)c1C` the Potency was “inactive”. `CCOC(=O)N1C(=O)[C@@](CC)(c2ccccc2)N1C(=O)OCC` was tested, and the Potency was “inactive”. With `CCOC(=O)C1=C(O)c2ccccc2C(=O)/C1=C\c1ccc(CC)cc1` the Potency was “inactive”. In the case of `CCOc1cccc(CNc2ccc(O)cc2)c1OCc1ccc(Cl)cc1Cl`, the Potency is reported as inconclusive: 39.8 µM [inhibitor, single point]. `Cc1cc2cc(CNC(=O)C(C)Oc3ccccc3)ccc2n1C` (centres undefined) was tested, and the Potency was inconclusive: 20 µM [inhibitor, single point]. With `CCCCNC(=S)Nc1ccc2cn[nH]c2c1` the Potency was inconclusive: 31.6 µM [inhibitor, partial curve, poor fit]. `Cc1nc2ccccc2c2c(N)c3ccccc3n12` was tested, and the Potency was inconclusive: 0.398 µM [inhibitor, full curve, poor fit]. For `COc1ccc(CC(=O)Nc2nnc(SCC(=O)NCc3ccco3)s2)cc1OC`, the Potency was inconclusive: 39.8 µM [inhibitor, single point]. `Cc1cccc(NC(=O)CC(=O)Nc2cccc(C)c2)c1` was tested, and the Potency was “inactive”. For `CC(C)CNC(=O)c1cccc(NC(=O)c2ccco2)c1`, the Potency was “inactive”. In the case of `CCc1ccc(NC(=O)CN(c2ccc3c(c2)OCO3)S(=O)(=O)c2c(C)noc2C)cc1`, the Potency is reported as inconclusive: 39.8 µM [inhibitor, single point]. In the case of `CCOC(=O)CSc1nnc(CNc2ccc(Cl)cc2)n1-c1ccccc1`, the Potency is reported as inconclusive: 63.1 µM [inhibitor, partial curve, poor fit]. `COc1ccc(/C=N/NC(=O)c2ccc(Cl)c(S(N)(=O)=O)c2)cc1OCC(N)=O` was tested, and the Potency was inconclusive: 15.8 µM [inhibitor, partial curve]. In the case of `O=C(Cc1ccccc1)NC1(O)C(=O)c2ccccc2C1=O`, the Potency is reported as inconclusive: 25.1 µM [inhibitor, single point]. With `COc1ccc(/C=C2\SC(=S)N(CC3CCCO3)C2=O)cc1` (centres undefined) the Potency was “inactive”. With `CCN1C(=O)CC(N2CCN(c3cccc(OC)c3)CC2)C1=O` (centres undefined) the Potency was inconclusive: 0.631 µM [inhibitor, full curve]. `COc1ccc(N2CCN(C(=O)c3ccc(NS(=O)(=O)c4cccc(F)c4)cc3)CC2)cc1` was tested, and the Potency was inconclusive: 39.8 µM [inhibitor, single point]. In the case of `COC(=O)C1CCN(CC(=O)Nc2ccccc2Sc2ccccc2)CC1`, the Potency is reported as inconclusive: 20 µM [inhibitor, single point]. For `CO[C@H]1COC(=O)[C@@H](C)COC(=O)[C@@H](OCc2ccccc2)/C=C\[C@@H]1C`, the Potency was inconclusive: 8.91 µM [inhibitor, single point]. `CC(C)(C)OC(=O)C[C@@H]1C/C=C\C[C@H](CC(=O)N(CCO)Cc2ccccc2)C(=O)N[C@@H](Cc2c[nH]c3ccccc23)COC1=O` was tested, and the Potency was inconclusive: 18.9 µM [inhibitor, partial curve]. With `CCc1cc2cc(C)ccc2nc1SCC(=O)N1CCN(C(=O)c2ccco2)CC1` the Potency was “inactive”. In the case of `CCOC(=O)C1=NO[C@@]2(C=C(Br)C(=O)[C@H]3O[C@H]32)C1`, the Potency is reported as active: 7.94 µM. For `O=C1C2C3C=CC([C@@H]2C(=O)N1C1CC1)[C@H]1C(=O)N(C2CC2)C(=O)C31` (some centres undefined), the Potency was inconclusive: 39.8 µM [inhibitor, single point]. `NS(=O)(=O)c1ccc(N2C(=O)C3CC=CCC3C2=O)cc1` (centres undefined) was tested, and the Potency was inconclusive: 25.1 µM [inhibitor, single point]. In the case of `CCn1c(SCC(=O)Nc2sc(C)c(C)c2C#N)nnc1C1CC1`, the Potency is reported as inconclusive: 12.6 µM [inhibitor, partial curve, poor fit]. With `O=C(CNC(=S)NC(=O)c1ccc(Cl)cc1)c1ccccc1` the Potency was inconclusive: 31.6 µM [inhibitor, single point]. With `CC(C)=CCN1CCN(Cc2cnc(-c3ccccc3)s2)CC1CCO` (centres undefined) the Potency was inconclusive: 7.94 µM [inhibitor, single point]. For `COC(=O)c1cccc(C23CC4(C2)[C@H](CN(C)[C@@H]4c2ccccc2)C3c2ccc(Cl)nc2)c1` (some centres undefined), the Potency was inconclusive: 39.8 µM [inhibitor, single point]. With `COCCNC(=O)[C@@]1(Cc2ccccc2)C=C[C@@H](C)N1C(C)=O` the Potency was inconclusive: 7.94 µM [inhibitor, single point]. With `COc1ccc(-c2cnc[nH]2)cc1` the Potency was inconclusive: 3.55 µM [inhibitor, partial curve]. `O=C(/C=C/c1ccco1)NCC(=O)N/N=C/c1ccc([N+](=O)[O-])cc1` was tested, and the Potency was “inactive”. For `O=C(O)c1c2c(nc3ccc(Cl)cc13)CCC2`, the Potency was inconclusive: 39.8 µM [inhibitor, single point]. `CCN(CC)c1ccc(N=Cc2ccc([N+](=O)[O-])o2)cc1` was tested, and the Potency was inconclusive: 15.8 µM [inhibitor, partial curve]. `CCOC(=O)c1c(-c2ccc(C)o2)csc1NC(=O)CSc1nnc(C)s1` was tested, and the Potency was “inactive”. In the case of `O=C(N/N=C/c1cccnc1)NC12CC3CC(CC(C3)C1)C2`, the Potency is reported as inconclusive: 0.0282 µM [inhibitor, full curve]. For `Cn1c(-c2ccccc2O)cc2ccccc21`, the Potency was inconclusive: 44.7 µM [inhibitor, single point]. With `COC(=O)C1=C(O)C2(C(=O)O)CC(C(=O)OC)=C(O)C(C(=O)O)(C1)C2` the Potency was “inactive”. With `CCCc1cc2c(n1Cc1ccc(OC)cc1)C(C)C1CN(C(=O)c3ccccc3)C(C)(C(=O)OC)C21` (centres undefined) the Potency was “inactive”. For `CC1CCCC(NC(=O)c2ccc3c(c2)OCO3)C1C` (centres undefined), the activity change, negative = inhibition was inconclusive: 1.19% [inhibitor]. In the case of `O=C(COC(=O)c1c2c(nc3ccccc13)CCCC2)c1cccs1`, the Potency is reported as inconclusive: 44.7 µM [inhibitor, single point]. In the case of `COc1cccc(C(=O)CSc2nc3ccccc3n2CC(=O)N(C(C)C)C(C)C)c1`, the Potency is reported as inconclusive: 0.708 µM [inhibitor, full curve]. In the case of `O=C1N=c2ccccc2=C1c1[nH]c(=S)[nH]c1O`, the Potency is reported as inconclusive: 35.5 µM [inhibitor, single point]. With `CCCN(CCC)C(=O)c1ccc2c(c1)OCO2` the Potency was inconclusive: 7.94 µM [inhibitor, single point].
